Assay results: article PMC8639842

Target: T1, protein tyrosine phosphatase receptor type C (PTPRC, CD45) (mouse (endogenous in P14 CD8+ T cells)) (UniProt P06800)
T1 sequence: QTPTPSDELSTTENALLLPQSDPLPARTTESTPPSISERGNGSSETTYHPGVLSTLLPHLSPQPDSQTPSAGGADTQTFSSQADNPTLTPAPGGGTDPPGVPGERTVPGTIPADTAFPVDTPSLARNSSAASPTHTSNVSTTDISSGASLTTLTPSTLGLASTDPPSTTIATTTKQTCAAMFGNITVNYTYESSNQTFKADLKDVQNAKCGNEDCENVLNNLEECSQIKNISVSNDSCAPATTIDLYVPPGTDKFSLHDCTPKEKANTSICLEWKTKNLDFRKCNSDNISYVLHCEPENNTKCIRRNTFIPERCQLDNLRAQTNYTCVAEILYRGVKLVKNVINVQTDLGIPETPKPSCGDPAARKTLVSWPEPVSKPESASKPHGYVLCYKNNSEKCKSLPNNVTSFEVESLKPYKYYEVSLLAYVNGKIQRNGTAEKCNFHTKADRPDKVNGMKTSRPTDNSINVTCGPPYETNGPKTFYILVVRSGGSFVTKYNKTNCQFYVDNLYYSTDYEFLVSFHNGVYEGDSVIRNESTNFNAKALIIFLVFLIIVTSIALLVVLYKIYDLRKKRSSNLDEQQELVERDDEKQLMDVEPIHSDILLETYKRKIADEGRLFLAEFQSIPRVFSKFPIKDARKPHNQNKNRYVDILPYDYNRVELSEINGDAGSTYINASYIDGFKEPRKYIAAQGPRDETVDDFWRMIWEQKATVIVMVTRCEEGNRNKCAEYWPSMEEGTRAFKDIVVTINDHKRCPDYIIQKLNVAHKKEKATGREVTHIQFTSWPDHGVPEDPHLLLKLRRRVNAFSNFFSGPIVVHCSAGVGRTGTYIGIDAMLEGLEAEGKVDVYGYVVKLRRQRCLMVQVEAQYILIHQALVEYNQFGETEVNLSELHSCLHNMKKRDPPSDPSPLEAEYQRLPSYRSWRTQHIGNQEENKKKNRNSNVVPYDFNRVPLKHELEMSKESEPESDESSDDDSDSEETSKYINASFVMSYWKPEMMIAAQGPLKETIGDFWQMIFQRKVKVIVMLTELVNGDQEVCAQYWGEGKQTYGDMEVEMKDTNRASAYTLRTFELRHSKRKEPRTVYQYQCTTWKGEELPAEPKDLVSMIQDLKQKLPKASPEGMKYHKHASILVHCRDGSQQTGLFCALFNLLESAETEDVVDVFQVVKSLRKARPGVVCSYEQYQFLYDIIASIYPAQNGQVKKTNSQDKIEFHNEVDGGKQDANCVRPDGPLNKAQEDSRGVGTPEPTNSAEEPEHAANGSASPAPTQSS
Assay: proximity labelling; only the binder purified

B1: gp33-SOG2 (LCMV peptide gp33-41 carrying two thiorhodamine SOG) (peptide)
peptide: KAVYNFATM
  binding: no binding

These are yes or no findings as the source states them, for the method shown. In cells and extracts the contact can be indirect. Here binding means that the protein was enriched with, or labelled near, the bait; the list need not be complete. No binding means not detected with the bait.
